# PubChem BioAssay AID504774 | Drosophila RNAi Screening Center | 2011
# Purpose: 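Knock-downs that shift viability of MMS-exposed cells relative to untreated ones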 (primary screen)
# Cell system: Drosophila Kc167 cells
# Knock-down reagent: long dsRNA against Drosophila genes, about 0.25 µg dsRNA per well
# Duration: about 6 days: 3 days knock-down, then 3 days with or without MMS
# Treatment: methyl methanesulphonate 0.004% (w/v) for 3 days after knock-down
# Read-out: 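Viability in wells given MMS, read as ATP luminescence, normalised by quantiles plate by plate and averaged across replicates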
# Direction: mean viability with MMS and viability with MMS: higher = more surviving cells after MMS
# In all, the deposit lists about 23,000 reagents; shown is a random part of those with a known target gene and a result. 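Values are quantile-normalised luminescence on an arbitrary scale; higher means more cells surviving MMS.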 Names joined by + are all predicted targets of the reagent.
gene knocked down,dsRNA,mean viability with MMS,"viability with MMS, replicate 1","viability with MMS, replicate 2"
Sgs4,DRSC18715,3.70e6,4.08e6,4.28e6
CG34150,DRSC13689,3.54e6,4.03e6,4.01e6
CG33463,DRSC22915,3.55e6,4.01e6,4.02e6
Pc,DRSC11873,3.42e6,4.03e6,3.69e6
CG31178,DRSC14590,3.62e6,4.29e6,3.92e6
Npl4,DRSC15615,3.56e6,4.03e6,4.07e6
Npl4,DRSC15616,3.44e6,3.92e6,3.83e6
Hsp83,DRSC08664,2.98e6,3.57e6,3.58e6
sens,DRSC09263,2.83e6,3.58e6,3.60e6
sens,DRSC23086,3.62e6,4.06e6,4.16e6
CG31204,DRSC15106,3.32e6,3.73e6,3.83e6
eve,DRSC07614,3.57e6,4.02e6,4.06e6
CG34345,DRSC02126,3.59e6,4.08e6,4.05e6
CG34196,DRSC05704,3.51e6,3.96e6,3.99e6
CG5946,DRSC10560,3.57e6,4.07e6,4.01e6
bft (retired record),DRSC21354,3.73e6,4.22e6,4.17e6
CG31380,DRSC15688,3.81e6,4.32e6,4.29e6
CG3502 + CG9863,DRSC04578,3.68e6,4.14e6,4.19e6
PAN2,DRSC07115,3.44e6,3.86e6,3.91e6
Gmer,DRSC04376,3.67e6,4.17e6,4.34e6
CG12360 (retired record),DRSC14505,3.58e6,4.01e6,4.13e6
CG8236,DRSC16399,3.39e6,3.81e6,3.88e6
cic,DRSC14276,3.20e6,3.74e6,3.64e6
cic,DRSC15708,3.15e6,3.65e6,3.70e6
cic,DRSC16918,3.40e6,3.96e6,3.78e6
cic,DRSC21243,3.46e6,3.98e6,3.89e6
cic,DRSC23217,3.58e6,4.06e6,4.07e6
CG42264,DRSC18074,3.63e6,4.14e6,4.10e6
CG42264,DRSC18075,3.68e6,4.12e6,4.24e6
CG17570,DRSC01770,3.62e6,4.07e6,4.12e6
CG17570,DRSC03754,3.46e6,3.90e6,3.92e6
CG12898,DRSC06213,3.60e6,4.10e6,4.03e6
blw,DRSC04675,3.33e6,3.73e6,3.73e6
CG32111 (retired record),DRSC09203,3.65e6,4.15e6,4.12e6
c(2)M,DRSC01922,3.71e6,4.22e6,4.25e6
Regnase-1,DRSC14278,3.53e6,4.00e6,4.01e6
yata,DRSC15408,3.46e6,3.85e6,3.94e6
CG31988,DRSC22491,3.61e6,4.13e6,4.02e6
CG3589,DRSC04392,3.22e6,2.74e6,3.74e6
CG34165,DRSC01970,2.93e6,3.52e6,3.49e6
Usp2,DRSC20590,2.30e6,3.95e6,3.83e6
Usp2,DRSC20632,3.50e6,4.04e6,3.88e6
Usp2,DRSC20633,3.43e6,3.91e6,3.87e6
PIG-Wa,DRSC00728,3.59e6,4.13e6,4.04e6
Rga,DRSC12364,3.69e6,4.22e6,4.11e6
Pi3K21B,DRSC00771,3.45e6,3.74e6,3.99e6
spn-B,DRSC17063,3.44e6,3.95e6,3.83e6
ReepA,DRSC04572,3.76e6,4.14e6,4.26e6
ReepA,DRSC22475,3.67e6,4.09e6,4.15e6
CG11162,DRSC19391,3.53e6,3.93e6,4.06e6
CG11162,DRSC22538,3.52e6,4.04e6,3.95e6
timeout,DRSC12950,3.54e6,4.09e6,3.95e6
timeout,DRSC17078,3.43e6,3.99e6,3.77e6
timeout,DRSC17079,3.73e6,4.20e6,4.28e6
timeout,DRSC17080,3.56e6,4.09e6,4.01e6
timeout,DRSC17081,3.51e6,3.84e6,4.12e6
timeout,DRSC21535,3.64e6,4.20e6,4.03e6
Cka,DRSC03476,3.70e6,4.38e6,4.02e6
Cka,DRSC22858,3.27e6,3.88e6,3.75e6
Fur2,DRSC19817,3.48e6,4.00e6,3.89e6
Ubc7,DRSC20299,3.50e6,3.90e6,4.04e6
bol,DRSC08964,3.49e6,3.97e6,3.96e6
bol,DRSC10444,3.45e6,3.77e6,4.06e6
bol,DRSC11329,3.40e6,3.68e6,4.01e6
CG31870,DRSC21681,3.51e6,3.98e6,4.00e6
CG34238,DRSC09040,3.62e6,4.07e6,4.09e6
Ir25a,DRSC00462,3.55e6,3.98e6,4.06e6
CG14455,DRSC11712,3.44e6,3.89e6,3.87e6

Not a retest: an excerpt of the list.
gene knocked down,dsRNA,mean viability with MMS,"viability with MMS, replicate 1","viability with MMS, replicate 2"
Cka,DRSC22858,3.27e6,3.88e6,3.75e6
Fur2,DRSC19817,3.48e6,4.00e6,3.89e6
Ubc7,DRSC20299,3.50e6,3.90e6,4.04e6
bol,DRSC08964,3.49e6,3.97e6,3.96e6
bol,DRSC10444,3.45e6,3.77e6,4.06e6
bol,DRSC11329,3.40e6,3.68e6,4.01e6
CG31870,DRSC21681,3.51e6,3.98e6,4.00e6
CG34238,DRSC09040,3.62e6,4.07e6,4.09e6
